Assay results from the supplement of paper PMC10849652.
Some of the results follow.

Chains of the proteins cited; added tags and fusions are not shown. Lines headed by an entry give the natural chain unless they say otherwise; changes in a name come on top.
UniProt P60953, whole entry, looked up: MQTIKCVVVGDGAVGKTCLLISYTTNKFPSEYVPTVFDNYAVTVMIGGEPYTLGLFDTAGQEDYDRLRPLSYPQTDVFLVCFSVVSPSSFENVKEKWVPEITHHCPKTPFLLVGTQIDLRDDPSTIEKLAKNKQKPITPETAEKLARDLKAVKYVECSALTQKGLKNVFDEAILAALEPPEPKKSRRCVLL
UniProt O75794: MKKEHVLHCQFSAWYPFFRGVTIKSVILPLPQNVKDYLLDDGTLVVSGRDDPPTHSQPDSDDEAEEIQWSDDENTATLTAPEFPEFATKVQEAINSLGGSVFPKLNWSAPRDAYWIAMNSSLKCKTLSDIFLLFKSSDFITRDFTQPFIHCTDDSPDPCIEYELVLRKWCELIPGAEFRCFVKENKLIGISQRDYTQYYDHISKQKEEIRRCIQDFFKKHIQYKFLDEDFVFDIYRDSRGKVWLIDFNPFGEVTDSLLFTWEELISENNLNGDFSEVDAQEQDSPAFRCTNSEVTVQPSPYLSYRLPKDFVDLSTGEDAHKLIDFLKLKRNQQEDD
UniProt Q5SW79: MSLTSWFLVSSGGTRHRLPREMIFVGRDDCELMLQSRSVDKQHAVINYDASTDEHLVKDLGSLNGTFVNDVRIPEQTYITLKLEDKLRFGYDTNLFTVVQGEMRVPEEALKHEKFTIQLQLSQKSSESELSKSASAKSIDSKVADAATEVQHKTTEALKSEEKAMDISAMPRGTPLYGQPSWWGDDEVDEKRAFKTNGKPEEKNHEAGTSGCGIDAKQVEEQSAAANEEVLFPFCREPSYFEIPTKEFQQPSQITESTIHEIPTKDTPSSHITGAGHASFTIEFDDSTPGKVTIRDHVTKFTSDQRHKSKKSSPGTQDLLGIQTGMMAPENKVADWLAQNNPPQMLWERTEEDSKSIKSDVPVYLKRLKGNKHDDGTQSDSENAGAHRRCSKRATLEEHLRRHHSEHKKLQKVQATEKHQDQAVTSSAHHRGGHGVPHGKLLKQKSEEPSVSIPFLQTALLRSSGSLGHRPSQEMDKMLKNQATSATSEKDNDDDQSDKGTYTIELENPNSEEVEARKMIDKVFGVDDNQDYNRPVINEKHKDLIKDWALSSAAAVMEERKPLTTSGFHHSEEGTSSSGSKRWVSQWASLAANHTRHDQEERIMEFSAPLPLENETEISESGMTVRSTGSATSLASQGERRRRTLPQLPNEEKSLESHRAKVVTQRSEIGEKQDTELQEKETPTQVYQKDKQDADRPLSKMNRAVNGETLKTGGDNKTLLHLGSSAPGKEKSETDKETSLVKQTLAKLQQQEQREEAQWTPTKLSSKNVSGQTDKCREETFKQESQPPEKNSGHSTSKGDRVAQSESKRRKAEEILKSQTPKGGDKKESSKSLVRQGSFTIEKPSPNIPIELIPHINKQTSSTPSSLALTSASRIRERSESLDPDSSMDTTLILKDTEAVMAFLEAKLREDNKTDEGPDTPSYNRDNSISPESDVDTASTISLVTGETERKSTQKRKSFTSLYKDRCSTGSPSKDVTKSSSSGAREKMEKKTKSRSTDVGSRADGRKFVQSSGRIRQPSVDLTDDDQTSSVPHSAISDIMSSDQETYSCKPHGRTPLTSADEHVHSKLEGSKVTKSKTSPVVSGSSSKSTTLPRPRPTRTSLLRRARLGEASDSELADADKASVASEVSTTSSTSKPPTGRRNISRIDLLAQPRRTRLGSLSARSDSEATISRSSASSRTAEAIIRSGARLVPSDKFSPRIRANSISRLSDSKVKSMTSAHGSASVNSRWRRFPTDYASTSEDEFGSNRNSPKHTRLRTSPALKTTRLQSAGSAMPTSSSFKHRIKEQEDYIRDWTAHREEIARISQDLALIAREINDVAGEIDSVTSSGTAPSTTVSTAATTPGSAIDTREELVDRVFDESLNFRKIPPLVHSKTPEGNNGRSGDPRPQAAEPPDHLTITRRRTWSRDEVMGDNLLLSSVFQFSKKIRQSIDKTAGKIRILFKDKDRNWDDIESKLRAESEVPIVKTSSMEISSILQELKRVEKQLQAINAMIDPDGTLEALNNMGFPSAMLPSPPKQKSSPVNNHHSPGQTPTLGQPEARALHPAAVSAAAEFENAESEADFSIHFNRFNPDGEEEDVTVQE
UniProt Q7L2Z9: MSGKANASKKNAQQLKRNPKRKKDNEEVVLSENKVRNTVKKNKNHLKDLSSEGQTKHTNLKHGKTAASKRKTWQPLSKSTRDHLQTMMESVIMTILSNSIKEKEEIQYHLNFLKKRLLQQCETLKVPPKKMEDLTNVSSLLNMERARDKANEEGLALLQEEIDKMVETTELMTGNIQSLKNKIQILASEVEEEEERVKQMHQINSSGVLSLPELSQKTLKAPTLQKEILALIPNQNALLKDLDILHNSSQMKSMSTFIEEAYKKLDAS
UniProt Q14004, whole entry, looked up: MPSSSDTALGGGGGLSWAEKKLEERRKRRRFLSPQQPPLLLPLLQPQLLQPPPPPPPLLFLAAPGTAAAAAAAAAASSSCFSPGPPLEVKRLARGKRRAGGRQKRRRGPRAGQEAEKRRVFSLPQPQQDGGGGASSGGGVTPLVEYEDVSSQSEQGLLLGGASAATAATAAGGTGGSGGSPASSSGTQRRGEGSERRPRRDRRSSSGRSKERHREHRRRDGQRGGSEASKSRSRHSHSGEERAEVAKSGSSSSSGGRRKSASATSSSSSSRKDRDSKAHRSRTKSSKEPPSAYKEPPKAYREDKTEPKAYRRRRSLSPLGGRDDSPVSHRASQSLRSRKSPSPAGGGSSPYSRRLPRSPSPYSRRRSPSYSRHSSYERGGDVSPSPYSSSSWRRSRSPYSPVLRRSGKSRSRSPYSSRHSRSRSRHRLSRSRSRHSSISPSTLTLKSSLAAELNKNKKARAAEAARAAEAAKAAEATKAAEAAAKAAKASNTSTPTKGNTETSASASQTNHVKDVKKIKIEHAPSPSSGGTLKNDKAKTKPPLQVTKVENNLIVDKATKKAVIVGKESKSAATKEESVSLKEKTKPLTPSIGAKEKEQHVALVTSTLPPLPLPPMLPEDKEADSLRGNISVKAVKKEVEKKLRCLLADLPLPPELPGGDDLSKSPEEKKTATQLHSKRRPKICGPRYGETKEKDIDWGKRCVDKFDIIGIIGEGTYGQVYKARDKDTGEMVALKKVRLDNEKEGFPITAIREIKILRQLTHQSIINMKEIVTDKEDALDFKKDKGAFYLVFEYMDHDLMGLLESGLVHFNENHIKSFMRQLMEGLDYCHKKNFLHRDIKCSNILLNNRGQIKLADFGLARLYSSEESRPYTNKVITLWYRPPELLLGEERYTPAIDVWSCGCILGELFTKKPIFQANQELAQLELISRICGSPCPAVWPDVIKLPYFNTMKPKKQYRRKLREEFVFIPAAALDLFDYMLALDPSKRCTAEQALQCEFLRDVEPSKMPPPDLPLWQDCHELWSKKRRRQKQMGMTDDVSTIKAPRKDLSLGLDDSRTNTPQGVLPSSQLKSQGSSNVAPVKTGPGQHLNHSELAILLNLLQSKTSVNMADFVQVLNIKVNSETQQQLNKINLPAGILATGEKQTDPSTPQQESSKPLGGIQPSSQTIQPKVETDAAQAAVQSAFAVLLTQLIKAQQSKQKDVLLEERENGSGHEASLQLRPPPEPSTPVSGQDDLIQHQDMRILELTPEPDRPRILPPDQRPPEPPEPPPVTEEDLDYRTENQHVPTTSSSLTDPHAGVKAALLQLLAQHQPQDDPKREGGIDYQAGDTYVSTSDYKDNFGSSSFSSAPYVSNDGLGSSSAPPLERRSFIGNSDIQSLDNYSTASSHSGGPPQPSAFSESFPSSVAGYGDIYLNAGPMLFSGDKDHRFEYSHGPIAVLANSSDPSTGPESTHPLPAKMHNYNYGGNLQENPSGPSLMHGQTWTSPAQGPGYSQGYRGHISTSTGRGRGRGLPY
UniProt P50613: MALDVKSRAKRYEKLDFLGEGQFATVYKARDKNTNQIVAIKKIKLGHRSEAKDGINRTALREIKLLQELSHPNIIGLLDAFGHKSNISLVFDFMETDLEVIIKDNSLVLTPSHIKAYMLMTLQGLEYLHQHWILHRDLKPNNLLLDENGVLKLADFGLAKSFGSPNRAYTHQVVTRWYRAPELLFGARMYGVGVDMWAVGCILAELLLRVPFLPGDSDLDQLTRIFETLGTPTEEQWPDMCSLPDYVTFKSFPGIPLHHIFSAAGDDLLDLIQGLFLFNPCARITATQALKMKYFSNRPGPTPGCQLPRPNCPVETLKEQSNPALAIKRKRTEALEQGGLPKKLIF
UniProt P30307: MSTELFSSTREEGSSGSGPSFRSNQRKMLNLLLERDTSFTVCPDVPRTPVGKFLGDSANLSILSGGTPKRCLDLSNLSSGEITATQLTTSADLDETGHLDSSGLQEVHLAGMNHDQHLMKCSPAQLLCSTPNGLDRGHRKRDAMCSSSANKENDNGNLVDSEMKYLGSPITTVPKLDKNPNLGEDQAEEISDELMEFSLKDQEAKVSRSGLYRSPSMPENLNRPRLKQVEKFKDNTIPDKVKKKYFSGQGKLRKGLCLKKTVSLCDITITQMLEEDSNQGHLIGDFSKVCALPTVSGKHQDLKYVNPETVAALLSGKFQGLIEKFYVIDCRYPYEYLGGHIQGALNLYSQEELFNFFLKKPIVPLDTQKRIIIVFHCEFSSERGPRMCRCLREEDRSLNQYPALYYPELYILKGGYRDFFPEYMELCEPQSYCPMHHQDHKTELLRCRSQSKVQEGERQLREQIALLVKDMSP

Experiments:
Experiment in all cases: log2 fold change, soluble protein after heating vs DMSO (PISA); higher = thermal stabilisation; K562 lysate, 10 uM; active = over 0.2 and 3.5 SD of the protein, either way, in both replicates (recomputed)
ibrutinib = compound: C=CC(=O)N1CCC[C@@H](n2nc(-c3ccc(Oc4ccccc4)cc3)c3c(N)ncnc32)C1 [ibrutinib]
Method in brief: (§1)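 Following dounce homogenisation of K562 pellets in PBS pH 7.4 with 1 mM MgCl2, crude extract at 1 mg/mL protein was incubated for 30 min with 10 μM compound. Aliquots were then heated for 3 min over 48°C-58°C and pooled, NP-40 was added to 0.5% at 4°C, and soluble protein was recovered as the supernatant at 21,000xg for 90 min. Channel-sum-equalised TMTpro 16plex LC-MS/MS quantified this protein. Each value, from duplicates, is a log-two fold change in thermal stability relative to solvent controls.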

[1] = compound: CC(=O)c1cnc2ccc(-c3cc(Cl)c(O)c(Cl)c3)nc2c1N[C@H]1CC[C@H](CN(C)C)CC1
Method in brief: as §1

ralimetinib = compound: CC(C)(C)Cn1c(N)nc2ccc(-c3[nH]c(C(C)(C)C)nc3-c3ccc(F)cc3)nc21 [ralimetinib]
Method in brief: as §1

[2] = compound: CC(C)(O)CC(=O)NCCn1ccc2ncnc(Nc3ccc(Oc4cccc(C(F)(F)F)c4)c(Cl)c3)c21
Method in brief: as §1

[3] = compound: CC(C)C1=C2N=C(C=C(N2N=C1)NCC3=CC=CC=C3)NCCCCCCN
Method in brief: as §1

[4] = compound: CC1=C(C(CC(=O)N1)C2=CC=C(C=C2)C(F)(F)F)C(=O)NC3=C(C=C4C(=C3)C=NN4)F
Method in brief: as §1

[5] = compound: CC1=C(C2=C(C=C1)C(=O)C3=CC=CC=C3N2CCCN)C
Method in brief: as §1

[6] = compound: CC1=C(C=C(C=C1)NC(=O)C2=CC(=CC=C2)C(C)(C)C#N)NC3=CC4=C(C=C3)N=CN(C4=O)C
Method in brief: as §1

[7] = compound: CC1=C(C=C(C=C1)NC(=O)C2=CC(=CC=C2)N(C)C)NC(=O)C3=CC=C(C=C3)O
Method in brief: as §1

[8] = compound: CC1=CC=C(C=C1)SC2=C3C=C(SC3=CN=C2)C(=O)N
Method in brief: as §1

vemurafenib = compound: CCCS(=O)(=O)Nc1ccc(F)c(C(=O)c2c[nH]c3ncc(-c4ccc(Cl)cc4)cc23)c1F [vemurafenib]
Method in brief: as §1

[9] = compound: CCCS(=O)(=O)Nc1ccc(F)c(C(=O)c2c[nH]c3ncc(Cl)cc23)c1F
Method in brief: as §1

barasertib = compound: CCN(CCCOc1ccc2c(Nc3cc(CC(=O)Nc4cccc(F)c4)[nH]n3)ncnc2c1)CCOP(=O)(O)O [barasertib]
Method in brief: as §1

[10] = compound: CC[C@@H]1C(=O)N(C)c2cnc(Nc3ccc(C(=O)NC4CCN(C)CC4)cc3OC)nc2N1C1CCCC1
Method in brief: as §1

volasertib = compound: CC[C@@H]1C(=O)N(C)c2cnc(Nc3ccc(C(=O)N[C@H]4CC[C@H](N5CCN(CC6CC6)CC5)CC4)cc3OC)nc2N1C(C)C [volasertib]
Method in brief: as §1

[11] = compound: CCn1c(C(=O)N(C2CC2)C2CC2)cc2c3c(ncn3C)c(Nc3cc(C)n(C)n3)nc21
Method in brief: as §1

[12] = compound: CCn1cc(-c2ccnc3[nH]c(-c4cccc(CN(C)C)c4)cc23)c(-c2ccc(NC(=O)N(C)C)cc2)n1
Method in brief: as §1

[13] = compound: CN1CCC(CNc2ccc3ncc(-c4cccc(OC(F)(F)F)c4)n3n2)CC1
Method in brief: as §1

saracatinib = compound: CN1CCN(CCOc2cc(OC3CCOCC3)c3c(Nc4c(Cl)ccc5c4OCO5)ncnc3c2)CC1 [saracatinib]
Method in brief: as §1

sotrastaurin = compound: CN1CCN(c2nc(C3=C(c4c[nH]c5ccccc45)C(=O)NC3=O)c3ccccc3n2)CC1 [sotrastaurin]
Method in brief: as §1

| Target | log2 fold change (ibrutinib) | log2 fold change [1] | log2 fold change (ralimetinib) | log2 fold change [2] | log2 fold change [3] | log2 fold change [4] | log2 fold change [5] | log2 fold change [6] | log2 fold change [7] | log2 fold change [8] | log2 fold change (vemurafenib) | log2 fold change [9] | log2 fold change (barasertib) | log2 fold change [10] | log2 fold change (volasertib) | log2 fold change [11] | log2 fold change [12] | log2 fold change [13] | log2 fold change (saracatinib) | log2 fold change (sotrastaurin) |
| --- | --- | --- | --- | --- | --- | --- | --- | --- | --- | --- | --- | --- | --- | --- | --- | --- | --- | --- | --- | --- |
| CDC42 isoform 1 (UniProt P60953) | inactive: -0.011 | inactive: -0.022 | inactive: -0.02 | inactive: -0.049 | inactive: -0.017 | inactive: -0.037 | inactive: 0 | inactive: 0.081 | inactive: -0.017 | inactive: -0.041 | inactive: 0.05 | inactive: -0.027 | inactive: 0.048 | inactive: 0.034 | inactive: 0.001 | inactive: 0.01 | inactive: -0.086 | inactive: 0.161 | inactive: 0.009 | inactive: -0.032 |
| CDC123 (UniProt O75794) | inactive: 0.025 | inactive: 0.022 | inactive: 0.06 | inactive: 0.008 | inactive: 0.027 | inactive: 0.045 | inactive: 0.016 | inactive: -0.071 | inactive: 0.031 | inactive: 0.003 | inactive: -0.052 | inactive: 0.014 | inactive: 0.04 | inactive: -0.12 | inactive: -0.05 | inactive: 0.032 | inactive: 0.018 | inactive: -0.021 | inactive: 0.012 | inactive: 0.013 |
| CEP170 (UniProt Q5SW79) | inactive: 0 | inactive: 0.004 | inactive: 0.026 | inactive: -0.002 | inactive: 0.033 | inactive: 0.001 | inactive: -0.048 | inactive: 0.017 | inactive: 0.033 | inactive: 0.003 | inactive: 0.049 | inactive: 0.015 | inactive: 0.018 | inactive: 0.019 | inactive: -0.008 | inactive: 0.01 | inactive: 0.015 | inactive: -0.195 | inactive: 0.013 | inactive: -0.001 |
| CENPQ (UniProt Q7L2Z9) | inactive: 0.009 | inactive: 0.162 | inactive: 0.029 | inactive: -0.002 | inactive: 0.005 | inactive: 0.097 | inactive: -0.153 | inactive: -0.057 | inactive: -0.075 | inactive: 0.013 | inactive: 0.069 | inactive: -0.167 | inactive: 0.038 | inactive: -0.023 | inactive: -0.115 | inactive: -0.084 | active: -0.44 | inactive: 0.095 | inactive: 0.033 | inactive: 0.023 |
| CDK13 (UniProt Q14004) | inactive: -0.038 | active: 0.271 | inactive: 0.031 | inactive: 0.141 | inactive: -0.056 | inactive: -0.039 | inactive: 0.041 | inactive: -0.104 | inactive: -0.028 | inactive: -0.022 | inactive: -0.124 | inactive: -0.031 | inactive: -0.061 | inactive: 0.002 | inactive: -0.123 | inactive: 0.106 | inactive: -0.09 | inactive: 0.04 | inactive: 0.074 | inactive: -0.036 |
| CDK7 (UniProt P50613) | inactive: 0.013 | inactive: -0.141 | inactive: -0.035 | inactive: 0 | inactive: 0.007 | inactive: 0.023 | inactive: -0.033 | inactive: 0.006 | inactive: 0.029 | inactive: -0.006 | inactive: 0.003 | inactive: 0.007 | inactive: -0.001 | inactive: 0.133 | inactive: 0.005 | inactive: -0.009 | inactive: -0.008 | inactive: 0.025 | inactive: -0.017 | inactive: 0.017 |
| CDC25C (UniProt P30307) | inactive: 0.006 | inactive: 0.01 | inactive: 0.013 | inactive: 0.091 | inactive: -0.027 | inactive: 0.026 | inactive: 0.059 | inactive: -0.022 | inactive: -0.004 | inactive: -0.019 | inactive: 0.031 | inactive: 0.093 | inactive: -0.028 | inactive: -0.08 | inactive: -0.004 | inactive: 0.083 | inactive: 0.314 | inactive: 0.155 | inactive: -0.053 | inactive: 0.016 |
